Values from PubChem BioAssay AID504764 (Drosophila RNAi Screening Center, 2011).
The deposit covers about 22,000 reagents; shown is an unselected part of those that have a named target and a result. Over the whole deposit, 403 (1.9%) got an active call. 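Unnormalised raw counts per well; ratio z-scores behind the hit calls and whether each hit raises or lowers signal are not deposited.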 Names joined by + are all predicted targets of the reagent. Not stated in the record: the amount of reagent.

Screen: 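Knock-downs that raise or lower a Notch target reporter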 (primary screen)
System: Drosophila Kc167 cells
Reagents: long dsRNA against Drosophila genes
Time to read-out: about 5 days (4 days dsRNA, then 24 h after transfection)
Conditions: transfection of constitutively active membrane-tethered Notch lacking the extracellular domain, read 24 h later
Measured: 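Firefly luciferase from an E(spl)m3 reporter with active Notch, plus control-promoter and uninduced reporter wells for normalisation; unnormalised counts, duplicate wells a and b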
Scale: induced reporter light, run 1, well a and induced reporter light, run 1, well b: higher = more light from the Notch target reporter with active Notch; control promoter light, run 1, well a and control promoter light, run 1, well b: higher = more light from the viral control promoter (cell number, transfection, viability); uninduced reporter light, run 1, well a: higher = more light from the Notch target reporter without active Notch
Active means: 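Hit if the duplicate-averaged log2 ratio of induced to control-promoter light gives a plate-wise z beyond ±2, or induced to uninduced beyond ±1.8; weak-control or discordant-duplicate wells dropped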
Calls: active = modifier hit (raised or lowered Notch signal); inactive = not a hit

For CG17574 [DRSC06681], the entry reads induced reporter light, run 1, well a = 99325; induced reporter light, run 1, well b = 95515; control promoter light, run 1, well a = 1.21e5; control promoter light, run 1, well b = 1.30e5; uninduced reporter light, run 1, well a = 10350; inactive. Silencing of xmas [DRSC21306] resulted in: induced reporter light, run 1, well a = 99410; induced reporter light, run 1, well b = 87165; control promoter light, run 1, well a = 1.03e5; control promoter light, run 1, well b = 1.01e5; uninduced reporter light, run 1, well a = 8850; inactive. Rab4 + CG42239 [DRSC05667] showed induced reporter light, run 1, well a = 1.01e5; induced reporter light, run 1, well b = 1.10e5; control promoter light, run 1, well a = 1.40e5; control promoter light, run 1, well b = 1.40e5; uninduced reporter light, run 1, well a = 8700; inactive. CG13247 [DRSC11695] gave induced reporter light, run 1, well a = 1.34e5; induced reporter light, run 1, well b = 1.02e5; control promoter light, run 1, well a = 1.12e5; control promoter light, run 1, well b = 82420; uninduced reporter light, run 1, well a = 6535; inactive. With knock-down of wfs1 [DRSC15676], the record shows induced reporter light, run 1, well a = 1.59e5; induced reporter light, run 1, well b = 2.10e5; control promoter light, run 1, well a = 1.87e5; control promoter light, run 1, well b = 2.21e5; uninduced reporter light, run 1, well a = 16540; inactive. mio [DRSC00692] gave induced reporter light, run 1, well a = 1.15e5; induced reporter light, run 1, well b = 1.33e5; control promoter light, run 1, well a = 1.37e5; control promoter light, run 1, well b = 1.38e5; uninduced reporter light, run 1, well a = 12230; inactive.

Knock-down of mio [DRSC22056] gave: inactive. Silencing of CG7166 [DRSC11809] gave: induced reporter light, run 1, well a = 1.28e5; induced reporter light, run 1, well b = 1.21e5; control promoter light, run 1, well a = 1.21e5; control promoter light, run 1, well b = 1.19e5; uninduced reporter light, run 1, well a = 9200; inactive. Depletion of Phae1 [DRSC02554] gave: induced reporter light, run 1, well a = 2.05e5; induced reporter light, run 1, well b = 2.05e5; control promoter light, run 1, well a = 1.64e5; control promoter light, run 1, well b = 2.26e5; uninduced reporter light, run 1, well a = 17830; inactive. With knock-down of Hph [DRSC12164], the screen gave induced reporter light, run 1, well a = 2.21e5; induced reporter light, run 1, well b = 1.37e5; control promoter light, run 1, well a = 2.46e5; control promoter light, run 1, well b = 1.57e5; uninduced reporter light, run 1, well a = 12255; inactive. Hph [DRSC12251] gave induced reporter light, run 1, well a = 25435; induced reporter light, run 1, well b = 18905; control promoter light, run 1, well a = 16550; control promoter light, run 1, well b = 15540; uninduced reporter light, run 1, well a = 2138; inactive. For CG15564 [DRSC15102], the values are induced reporter light, run 1, well a = 1.18e5; induced reporter light, run 1, well b = 1.05e5; control promoter light, run 1, well a = 1.48e5; control promoter light, run 1, well b = 1.70e5; uninduced reporter light, run 1, well a = 10520; inactive.

Records listed so far whose target name starts with M or m:
mio [DRSC00692] — induced reporter light, run 1, well a = 1.15e5; induced reporter light, run 1, well b = 1.33e5; control promoter light, run 1, well a = 1.37e5; control promoter light, run 1, well b = 1.38e5; uninduced reporter light, run 1, well a = 12230; activity call = inactive
mio [DRSC22056] — activity call = inactive
